Where cells or extracts were used, other partners may take part. For some assays here: Negatives hold for the conditions tested. For some assays here: Weaker means in comparison with the reference protein, sequence or condition of that experiment. For some assays here: Construct, isoform or probe ends are uncertain for at least one entry.
What was measured:
[1] = target: Stat1 homodimer (SIF C) (Homo sapiens) (UniProt P42224); assay: EMSA; settings: protein in an extract, label: 32P
[2] = test system: Stat1:Stat3 heterodimer (SIF B) (Homo sapiens); assay: EMSA; settings: protein in an extract, label: 32P
[3] = target: Stat1alpha expressed in U3A cells (Homo sapiens) (UniProt P42224); assay: EMSA; settings: protein in an extract, label: 32P
[4] = target: Stat3 expressed in U3A or COS-1 cells (UniProt P42227); assay: EMSA; settings: IFN-alpha treated U3A, protein in an extract, label: 32P
[5] = target: Stat3 homodimer (SIF A) (Homo sapiens) (UniProt P40763); assay: EMSA; settings: protein in an extract, label: 32P
[6] = target: chimera 1,3(297-406),1 (3' Stat1 junction residue not in text) (UniProt P42224); assay: EMSA; settings: Stat1 recognition intact, protein in an extract, protein details: FLAG, label: 32P
[7] = target: chimera 1,3(406-514),1 (5' Stat1 junction residue not in text) (UniProt P42224); assay: EMSA; settings: Stat3 recognition transferred, protein in an extract, protein details: FLAG, label: 32P
[8] = target: chimera 3-111-1 (Stat3 1-111 substituted into Stat1 + exact Stat1 junction residue not in text) (UniProt P42224); assay: EMSA; settings: interferon treated U3A, protein in an extract, protein details: FLAG, label: 32P
[9] = target: Stat1alpha S727A (Stat1alpha-s) (Homo sapiens) (UniProt P42224); assay: EMSA; settings: equal to wild type, protein in an extract, label: 32P
[10] = target: Stat3 EE>AA E434A,E435A (UniProt P42227); assay: EMSA; settings: nearly undetectable; phosphorylated and dimerizes normally; protein in an extract; label: 32P; variant of SIE (c-fos sis-inducible element)
[11] = target: Stat3 VVV>AAA V461A,V462A,V463A (UniProt P42227); assay: EMSA; settings: distinctly reduced but detectable; protein in an extract; label: 32P; variant of SIE (c-fos sis-inducible element)
[12] = target: Stat3 homodimer (SIF A) (Homo sapiens) (UniProt P40763); assay: competition with a labelled probe; settings: HepG2 IL-6; estimated by competition, S3 better than S1; protein in an extract; label: 32P
[13] = not observed unless overexposed
[14] = HepG2 IL-6, variant of SIE (c-fos sis-inducible element)
[15] = variant of SIE (c-fos sis-inducible element)
[16] = very weak signal with STAT proteins

Chains of the proteins cited; added tags and fusions are not shown. A line that says so, or that is headed by a name, gives the form on record, which may keep a tag or linker. Residues count along the entry.
UniProt P42224, 2-750: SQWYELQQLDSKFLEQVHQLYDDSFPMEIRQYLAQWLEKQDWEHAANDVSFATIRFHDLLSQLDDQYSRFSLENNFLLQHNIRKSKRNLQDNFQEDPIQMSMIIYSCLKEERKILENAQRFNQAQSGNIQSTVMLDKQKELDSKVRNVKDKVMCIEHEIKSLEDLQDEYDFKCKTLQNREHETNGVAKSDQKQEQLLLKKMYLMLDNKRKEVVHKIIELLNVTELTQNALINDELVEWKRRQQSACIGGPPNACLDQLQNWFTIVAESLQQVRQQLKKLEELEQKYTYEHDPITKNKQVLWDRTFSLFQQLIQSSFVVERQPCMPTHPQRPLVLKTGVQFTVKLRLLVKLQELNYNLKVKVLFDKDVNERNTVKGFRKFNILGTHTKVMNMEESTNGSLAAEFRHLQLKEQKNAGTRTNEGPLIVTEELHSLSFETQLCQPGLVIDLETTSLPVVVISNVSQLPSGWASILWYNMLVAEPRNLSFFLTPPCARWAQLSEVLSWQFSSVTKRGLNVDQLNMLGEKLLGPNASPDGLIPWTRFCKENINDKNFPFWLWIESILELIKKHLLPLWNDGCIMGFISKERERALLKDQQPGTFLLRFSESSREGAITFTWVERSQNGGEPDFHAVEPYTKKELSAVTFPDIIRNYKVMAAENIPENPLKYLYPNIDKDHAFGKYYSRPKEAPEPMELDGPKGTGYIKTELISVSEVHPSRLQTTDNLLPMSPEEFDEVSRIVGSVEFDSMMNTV
UniProt P42224, 2-750 S727A: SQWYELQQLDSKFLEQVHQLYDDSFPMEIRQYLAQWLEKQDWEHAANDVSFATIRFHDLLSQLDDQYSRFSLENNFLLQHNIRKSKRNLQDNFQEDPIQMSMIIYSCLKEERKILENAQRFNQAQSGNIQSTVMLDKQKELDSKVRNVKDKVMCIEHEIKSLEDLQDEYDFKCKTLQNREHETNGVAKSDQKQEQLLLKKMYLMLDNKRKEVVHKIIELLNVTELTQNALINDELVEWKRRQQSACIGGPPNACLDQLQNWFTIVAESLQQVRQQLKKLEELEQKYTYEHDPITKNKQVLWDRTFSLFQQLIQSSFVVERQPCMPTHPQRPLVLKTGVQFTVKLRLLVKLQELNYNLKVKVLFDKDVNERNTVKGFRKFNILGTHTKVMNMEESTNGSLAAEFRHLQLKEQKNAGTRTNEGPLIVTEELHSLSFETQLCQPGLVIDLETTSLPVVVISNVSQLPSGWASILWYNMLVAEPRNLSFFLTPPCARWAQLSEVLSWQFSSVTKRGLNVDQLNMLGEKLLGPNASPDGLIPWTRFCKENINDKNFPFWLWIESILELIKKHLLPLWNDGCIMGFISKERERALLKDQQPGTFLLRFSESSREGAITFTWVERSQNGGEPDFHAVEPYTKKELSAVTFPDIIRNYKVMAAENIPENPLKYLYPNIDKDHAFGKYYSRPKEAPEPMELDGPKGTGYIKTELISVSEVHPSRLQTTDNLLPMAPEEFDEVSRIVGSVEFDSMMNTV
UniProt P42227, other isoform, or with tags, fused parts or gaps: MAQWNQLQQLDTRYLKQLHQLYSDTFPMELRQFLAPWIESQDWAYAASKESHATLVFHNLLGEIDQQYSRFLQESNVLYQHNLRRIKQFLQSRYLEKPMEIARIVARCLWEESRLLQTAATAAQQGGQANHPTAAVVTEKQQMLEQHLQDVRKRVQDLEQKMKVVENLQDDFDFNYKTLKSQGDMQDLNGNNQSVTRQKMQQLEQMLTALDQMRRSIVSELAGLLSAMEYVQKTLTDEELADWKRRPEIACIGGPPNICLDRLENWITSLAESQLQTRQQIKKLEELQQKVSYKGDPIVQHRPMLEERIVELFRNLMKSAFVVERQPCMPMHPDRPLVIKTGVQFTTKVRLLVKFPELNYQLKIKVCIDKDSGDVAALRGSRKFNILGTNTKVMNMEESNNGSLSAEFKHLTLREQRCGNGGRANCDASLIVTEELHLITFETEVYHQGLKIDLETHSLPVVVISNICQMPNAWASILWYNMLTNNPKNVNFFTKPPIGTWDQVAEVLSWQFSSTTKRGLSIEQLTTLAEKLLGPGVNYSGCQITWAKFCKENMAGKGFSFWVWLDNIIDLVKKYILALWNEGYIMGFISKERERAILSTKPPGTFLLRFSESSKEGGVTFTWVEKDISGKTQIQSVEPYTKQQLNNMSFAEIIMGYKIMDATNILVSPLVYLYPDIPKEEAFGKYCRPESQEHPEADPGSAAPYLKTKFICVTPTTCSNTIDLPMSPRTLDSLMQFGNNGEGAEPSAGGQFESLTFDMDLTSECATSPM
UniProt P42227, other isoform, or with tags, fused parts or gaps E434A E435A: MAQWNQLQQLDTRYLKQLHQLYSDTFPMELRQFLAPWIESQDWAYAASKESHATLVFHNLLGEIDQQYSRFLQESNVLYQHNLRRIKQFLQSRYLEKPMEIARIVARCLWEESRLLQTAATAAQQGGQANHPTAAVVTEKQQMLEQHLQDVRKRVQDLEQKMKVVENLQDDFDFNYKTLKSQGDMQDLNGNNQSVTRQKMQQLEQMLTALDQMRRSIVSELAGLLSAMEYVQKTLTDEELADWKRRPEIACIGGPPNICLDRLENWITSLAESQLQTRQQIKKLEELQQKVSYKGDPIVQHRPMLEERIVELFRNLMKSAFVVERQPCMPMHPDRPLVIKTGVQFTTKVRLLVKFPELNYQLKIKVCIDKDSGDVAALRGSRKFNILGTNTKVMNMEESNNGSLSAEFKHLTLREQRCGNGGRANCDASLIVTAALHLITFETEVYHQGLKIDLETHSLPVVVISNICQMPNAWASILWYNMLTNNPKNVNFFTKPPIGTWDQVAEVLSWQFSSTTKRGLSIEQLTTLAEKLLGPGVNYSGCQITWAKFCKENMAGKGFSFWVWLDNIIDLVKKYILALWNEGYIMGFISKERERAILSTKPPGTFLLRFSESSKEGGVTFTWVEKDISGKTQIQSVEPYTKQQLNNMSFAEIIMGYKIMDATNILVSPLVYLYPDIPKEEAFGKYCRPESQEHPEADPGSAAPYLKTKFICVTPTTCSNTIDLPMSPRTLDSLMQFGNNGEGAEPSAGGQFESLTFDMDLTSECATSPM
UniProt P42227, other isoform, or with tags, fused parts or gaps V461A V462A V463A: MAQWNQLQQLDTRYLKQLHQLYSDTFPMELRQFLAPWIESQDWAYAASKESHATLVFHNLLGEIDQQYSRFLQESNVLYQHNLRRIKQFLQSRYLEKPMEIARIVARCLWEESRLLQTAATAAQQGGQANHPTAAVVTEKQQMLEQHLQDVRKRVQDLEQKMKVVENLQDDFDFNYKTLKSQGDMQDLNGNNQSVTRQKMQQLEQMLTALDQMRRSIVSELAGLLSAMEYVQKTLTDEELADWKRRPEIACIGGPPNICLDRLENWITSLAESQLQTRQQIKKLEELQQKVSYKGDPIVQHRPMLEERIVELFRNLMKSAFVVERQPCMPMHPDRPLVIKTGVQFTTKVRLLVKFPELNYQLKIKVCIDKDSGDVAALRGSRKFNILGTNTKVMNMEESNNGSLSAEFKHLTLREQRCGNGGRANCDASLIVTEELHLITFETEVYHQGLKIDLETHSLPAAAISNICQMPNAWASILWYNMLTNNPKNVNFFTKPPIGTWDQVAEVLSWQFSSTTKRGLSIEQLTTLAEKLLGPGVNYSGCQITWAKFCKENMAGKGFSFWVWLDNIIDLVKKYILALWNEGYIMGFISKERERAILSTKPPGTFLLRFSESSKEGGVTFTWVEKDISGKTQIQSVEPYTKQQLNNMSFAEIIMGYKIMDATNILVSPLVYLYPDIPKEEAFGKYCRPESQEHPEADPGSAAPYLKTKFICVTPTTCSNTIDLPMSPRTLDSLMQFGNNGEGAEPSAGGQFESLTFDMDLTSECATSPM
UniProt P40763, 2-770: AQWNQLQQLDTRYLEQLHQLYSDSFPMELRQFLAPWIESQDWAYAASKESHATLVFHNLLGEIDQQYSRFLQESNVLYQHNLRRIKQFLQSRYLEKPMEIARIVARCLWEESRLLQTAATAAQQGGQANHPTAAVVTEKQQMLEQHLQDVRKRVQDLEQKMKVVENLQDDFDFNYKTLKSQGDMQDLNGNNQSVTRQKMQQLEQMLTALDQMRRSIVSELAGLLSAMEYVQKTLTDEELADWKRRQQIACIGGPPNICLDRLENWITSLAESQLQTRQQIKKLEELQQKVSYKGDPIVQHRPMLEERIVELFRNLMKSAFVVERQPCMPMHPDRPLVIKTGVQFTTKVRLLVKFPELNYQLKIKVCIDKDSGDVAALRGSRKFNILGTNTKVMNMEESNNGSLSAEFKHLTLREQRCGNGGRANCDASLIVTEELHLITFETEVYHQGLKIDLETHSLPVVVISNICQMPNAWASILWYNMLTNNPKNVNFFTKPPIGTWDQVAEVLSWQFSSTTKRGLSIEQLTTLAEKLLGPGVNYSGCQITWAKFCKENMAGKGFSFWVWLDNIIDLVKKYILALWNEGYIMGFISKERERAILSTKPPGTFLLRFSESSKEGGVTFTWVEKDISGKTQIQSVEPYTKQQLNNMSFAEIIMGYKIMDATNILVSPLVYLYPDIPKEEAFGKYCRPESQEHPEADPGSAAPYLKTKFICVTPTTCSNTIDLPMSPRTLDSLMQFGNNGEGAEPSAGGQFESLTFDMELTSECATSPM
Stat1:Stat3 heterodimer (SIF B) (Homo sapiens), one chain, as listed by the source, chain 2 of 2: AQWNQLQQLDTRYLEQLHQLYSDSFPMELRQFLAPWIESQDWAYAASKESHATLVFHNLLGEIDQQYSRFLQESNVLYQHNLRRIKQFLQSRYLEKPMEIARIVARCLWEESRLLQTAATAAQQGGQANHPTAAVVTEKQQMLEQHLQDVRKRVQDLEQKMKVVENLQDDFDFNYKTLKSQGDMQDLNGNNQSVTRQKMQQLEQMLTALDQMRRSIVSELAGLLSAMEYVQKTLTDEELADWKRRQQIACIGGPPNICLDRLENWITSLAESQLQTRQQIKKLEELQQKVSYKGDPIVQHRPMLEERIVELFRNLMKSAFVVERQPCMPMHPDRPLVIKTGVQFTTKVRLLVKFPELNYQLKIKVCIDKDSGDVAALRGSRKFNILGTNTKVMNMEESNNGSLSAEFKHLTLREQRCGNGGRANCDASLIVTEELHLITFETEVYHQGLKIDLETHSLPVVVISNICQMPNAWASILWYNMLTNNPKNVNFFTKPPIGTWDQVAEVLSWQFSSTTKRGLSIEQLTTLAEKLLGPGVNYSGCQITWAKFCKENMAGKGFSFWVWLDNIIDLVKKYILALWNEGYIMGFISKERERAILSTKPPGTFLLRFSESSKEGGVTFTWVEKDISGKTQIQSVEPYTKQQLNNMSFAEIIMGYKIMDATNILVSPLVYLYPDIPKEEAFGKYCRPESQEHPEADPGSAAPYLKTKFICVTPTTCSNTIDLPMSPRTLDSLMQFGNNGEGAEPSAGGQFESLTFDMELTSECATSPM
Stat1:Stat3 heterodimer (SIF B) (Homo sapiens), one chain, as listed by the source, chain 1 of 2: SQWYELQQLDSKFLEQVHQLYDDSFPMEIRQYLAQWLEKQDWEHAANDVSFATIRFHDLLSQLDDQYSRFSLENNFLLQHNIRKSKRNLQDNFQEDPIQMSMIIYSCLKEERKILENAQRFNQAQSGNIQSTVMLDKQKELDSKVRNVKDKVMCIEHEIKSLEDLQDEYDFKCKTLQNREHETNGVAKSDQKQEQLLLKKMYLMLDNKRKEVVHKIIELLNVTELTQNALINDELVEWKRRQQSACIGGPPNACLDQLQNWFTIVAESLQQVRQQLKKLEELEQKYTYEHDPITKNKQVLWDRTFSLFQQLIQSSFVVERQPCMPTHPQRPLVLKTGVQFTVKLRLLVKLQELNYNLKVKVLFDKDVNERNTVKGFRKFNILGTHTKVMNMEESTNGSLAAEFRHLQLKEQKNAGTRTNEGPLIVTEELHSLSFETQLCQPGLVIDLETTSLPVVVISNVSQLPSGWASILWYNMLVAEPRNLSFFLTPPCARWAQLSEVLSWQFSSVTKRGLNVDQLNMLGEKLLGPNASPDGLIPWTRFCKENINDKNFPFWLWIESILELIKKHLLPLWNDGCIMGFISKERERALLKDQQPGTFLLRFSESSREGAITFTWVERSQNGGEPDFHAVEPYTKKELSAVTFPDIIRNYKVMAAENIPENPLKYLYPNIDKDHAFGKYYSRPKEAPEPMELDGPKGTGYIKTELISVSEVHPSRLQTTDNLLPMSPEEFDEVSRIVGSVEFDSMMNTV

## GTATTTCCCAGAAAAGG (double strand) [GRR (FcgammaR1)]
[1]; HepG2 IL-6
  binding result: binds
[2]; bound poorly
  binding result: binds more weakly
[3]; IFN-gamma treated U3A
  binding result: binds
[4]; not or very poorly bound
  binding result: no binding
[5]; [13]
  binding result: no binding
[6]
  binding result: binds
[7]
  binding result: no binding
[8]
  binding result: binds

## CATTTCCCGTAAATCAT (double strand) [M67 SIE]
[1]; [14]
  binding result: binds
[2]; [14]
  binding result: binds
[9]; data not shown, variant of SIE (c-fos sis-inducible element)
  binding result: binds
[3]; IFN-gamma treated U3A, variant of SIE (c-fos sis-inducible element)
  binding result: binds
[10]
  binding result: binds more weakly
[11]
  binding result: binds more weakly
[4]; EGF-treated COS, variant of SIE (c-fos sis-inducible element)
  binding result: binds
[5]; [14]
  binding result: binds
[6]; [15]
  binding result: binds
[7]; [15]
  binding result: binds
[8]; [15]
  binding result: binds

## TTCCCCGAA (double strand) [IRF-1 GAS (only core printed)]
[9]
  binding result: binds
[3]; IFN-gamma treated U3A, supershifted by anti-Stat1C
  binding result: binds

## GTTGTTCCGGGAAAATT (double strand) [S1 (Stat1 selected consensus)]
[1]; HepG2 extract, lower affinity than M67, site selected by Stat1 from random pool
  binding result: binds
[2]; HepG2 IL-6, lower overall affinity than M67
  binding result: binds
[5]; HepG2 IL-6, lower overall affinity than M67, 3-5 fold weaker than S3 by competition
  binding result: binds

## CAGTTCCCGTCAATCAT (double strand) [SIE (c-fos sis-inducible element)]
[1]; [16]
  binding result: binds more weakly
[2]; [16]
  binding result: binds more weakly
[5]; [16]
  binding result: binds more weakly

## ATATTCCTGTAAGTGAT (double strand) [Ly6E GAS]
[1]; 2-3 fold less binding than GRR
  binding result: binds
[2]; bound poorly
  binding result: binds more weakly
[9]; data not shown
  binding result: binds
[3]; data not shown
  binding result: binds
[5]; [13]
  binding result: no binding

## TATTTCCGGGAAATCCC (double strand) [S3 (Stat3 selected consensus)]
[1]; HepG2 IL-6
  binding result: binds
[2]; partly obscured by comigrating constitutive protein
  binding result: binds
[12]
  binding result: binds

— patent publication US5716622
